{"source": "patent US5451369A", "about": "“Bacteriocidal surfaces and articles with attached bacteriocin” (The State of Oregon Acting By and Through The State Board …, priority 1993, dated 1995)", "origin": "cited, not measured here", "system": "proteolytic and other enzymes", "conditions": "cited from earlier work"}
{"substance": "nisin (ITSISLCTPGCKTGALMGCNMKTATCHCSIHVSK; Lantibiotic nisin-A; UniProt P13068 24-57, looked up)", "values": [{"measurement": "effect of α-chymotrypsin, pancreatin, and ficin on antimicrobial activity", "setting": "treatment with α-chymotrypsin, pancreatin, ficin", "value": "can destroy the antimicrobial activity"}, {"measurement": "effect of trypsin, pepsin, erepsin, diastase, and carboxypeptidase A on activity", "setting": "trypsin, pepsin, erepsin, diastase, carboxypeptidase A", "value": "do not appear to inactivate"}]}
